Data from article PMC9710844.
Like-named read-outs stand apart in the source and are kept apart here. These are yes or no findings as the source states them, for the method shown. Binding seen in cells or lysates may run through a third protein. Some binding calls cover weakened binding; strength is not graded here. Sequences can lack the tags named with a protein.

The chains behind the UniProt entries cited, without tags or fusion partners.
UniProt Q86WV6: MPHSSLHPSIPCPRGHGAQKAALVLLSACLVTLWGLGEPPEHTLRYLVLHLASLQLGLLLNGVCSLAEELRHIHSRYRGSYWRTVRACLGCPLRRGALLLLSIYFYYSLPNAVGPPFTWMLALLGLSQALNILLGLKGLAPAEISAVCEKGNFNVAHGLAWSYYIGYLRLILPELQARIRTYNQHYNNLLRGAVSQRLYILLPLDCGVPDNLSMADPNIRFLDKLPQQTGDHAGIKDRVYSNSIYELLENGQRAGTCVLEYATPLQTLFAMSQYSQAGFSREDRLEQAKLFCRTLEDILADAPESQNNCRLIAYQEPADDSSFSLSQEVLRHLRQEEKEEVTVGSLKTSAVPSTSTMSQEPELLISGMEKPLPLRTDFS
UniProt Q8N884: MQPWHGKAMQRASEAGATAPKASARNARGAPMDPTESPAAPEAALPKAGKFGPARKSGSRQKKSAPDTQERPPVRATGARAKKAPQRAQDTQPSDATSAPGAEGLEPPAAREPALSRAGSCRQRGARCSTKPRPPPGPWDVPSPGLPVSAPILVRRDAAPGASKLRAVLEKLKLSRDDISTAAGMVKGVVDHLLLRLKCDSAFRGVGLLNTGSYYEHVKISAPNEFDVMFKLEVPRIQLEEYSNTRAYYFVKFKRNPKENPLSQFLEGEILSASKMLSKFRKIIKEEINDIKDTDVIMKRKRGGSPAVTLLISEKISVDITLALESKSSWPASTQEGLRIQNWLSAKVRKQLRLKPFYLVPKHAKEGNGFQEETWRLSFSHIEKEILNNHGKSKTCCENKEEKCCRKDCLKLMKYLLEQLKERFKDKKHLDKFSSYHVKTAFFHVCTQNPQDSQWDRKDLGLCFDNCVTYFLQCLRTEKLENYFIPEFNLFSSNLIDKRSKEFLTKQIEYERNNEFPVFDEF

T1: Flag-DDOST, full length (human) (UniProt P39656)
T1 sequence: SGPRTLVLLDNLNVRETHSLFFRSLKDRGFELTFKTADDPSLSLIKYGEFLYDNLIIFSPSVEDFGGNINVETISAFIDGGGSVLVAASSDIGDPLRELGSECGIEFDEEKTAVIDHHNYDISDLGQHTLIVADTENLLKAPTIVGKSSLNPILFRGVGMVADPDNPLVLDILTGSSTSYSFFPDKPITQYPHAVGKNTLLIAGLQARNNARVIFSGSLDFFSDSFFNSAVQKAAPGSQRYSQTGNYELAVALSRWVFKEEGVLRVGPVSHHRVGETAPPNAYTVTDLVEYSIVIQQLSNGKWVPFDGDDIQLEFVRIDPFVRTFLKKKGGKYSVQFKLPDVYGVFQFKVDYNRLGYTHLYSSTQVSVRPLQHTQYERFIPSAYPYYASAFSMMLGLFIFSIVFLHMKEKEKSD


What was measured:
Experiment in all cases: co-IP; HEK293T cells transfected with Flag- and HA-tagged plasmids; NP-40 lysis buffer, Protein G Sepharose and the indicated antibody or control IgG, 3 hours; immunoblot
[1] = biological target: T1, Flag-DDOST, full length (human)
[2] = biological target: Flag-MITA (human) (UniProt Q86WV6)
[3] = biological target: T1, Flag-DDOST, full length (human); remark: listed apart in the source

Molecule | binding [1] | further results
HA-MITA, full length (from UniProt Q86WV6 1-379) | binds | 
HA-cGAS (cyclic GMP-AMP synthase) (from UniProt Q8N884 1-522) | no binding | 
HA-STT3A (STT3 oligosaccharyltransferase complex catalytic subunit A) (protein, UniProt P46977 1-705) MTKFGFLRLSYEKQDTLLKLLILSMAAVLSFSTRLFAVLRFESVIHEFDPYFNYRTTRFLAEEGFYKFHNWFDDRAWYPLGRIIGGTIYPGLMITSAAIYHVLHFFHITIDIRNVCVFLAPLFSSFTTIVTYHLTKELKDAGAGLLAAAMIAVVPGYISRSVAGSYDNEGIAIFCMLLTYYMWIKAVKTGSICWAAKCALAYFYMVSSWGGYVFLINLIPLHVLVLMLTGRFSHRIYVAYCTVYCLGTILSMQISFVGFQPVLSSEHMAAFGVFGLCQIHAFVDYLRSKLNPQQFEVLFRSVISLVGFVLLTVGALLMLTGKISPWTGRFYSLLDPSYAKNNIPIIASVSEHQPTTWSSYYFDLQLLVFMFPVGLYYCFSNLSDARIFIIMYGVTSMYFSAVMVRLMLVLAPVMCILSGIGVSQVLSTYMKNLDISRPDKKSKKQQDSTYPIKNEVASGMILVMAFFLITYTFHSTWVTSEAYSSPSIVLSARGGDGSRIIFDDFREAYYWLRHNTPEDAKVMSWWDYGYQITAMANRTILVDNNTWNNTHISRVGQAMASTEEKAYEIMRELDVSYVLVIFGGLTGYSSDDINKFLWMVRIGGSTDTGKHIKENDYYTPTGEFRVDREGSPVLLNCLMYKMCYYRFGQVYTEAKRPPGFDRVRNAEIGNKDFELDVLEEAYTTEHWLVRIYKVKDLDNRGLSRT |  | binding [2]: binds
HA-TBK1 (protein, UniProt Q9UHD2 1-729) MQSTSNHLWLLSDILGQGATANVFRGRHKKTGDLFAIKVFNNISFLRPVDVQMREFEVLKKLNHKNIVKLFAIEEETTTRHKVLIMEFCPCGSLYTVLEEPSNAYGLPESEFLIVLRDVVGGMNHLRENGIVHRDIKPGNIMRVIGEDGQSVYKLTDFGAARELEDDEQFVSLYGTEEYLHPDMYERAVLRKDHQKKYGATVDLWSIGVTFYHAATGSLPFRPFEGPRRNKEVMYKIITGKPSGAISGVQKAENGPIDWSGDMPVSCSLSRGLQVLLTPVLANILEADQEKCWGFDQFFAETSDILHRMVIHVFSLQQMTAHKIYIHSYNTATIFHELVYKQTKIISSNQELIYEGRRLVLEPGRLAQHFPKTTEENPIFVVSREPLNTIGLIYEKISLPKVHPRYDLDGDASMAKAITGVVCYACRIASTLLLYQELMRKGIRWLIELIKDDYNETVHKKTEVVITLDFCIRNIEKTVKVYEKLMKINLEAAELGEISDIHTKLLRLSSSQGTIETSLQDIDSRLSPGGSLADAWAHQEGTHPKDRNVEKLQVLLNCMTEIYYQFKKDKAERRLAYNEEQIHKFDKQKLYYHATKAMTHFTDECVKKYEAFLNKSEEWIRKMLHLRKQLLSLTNQCFDIEEEVSKYQEYTNELQETLPQKMFTASSGIKHTMTPIYPSSNTLVEMTLGMKKLKEEMEGVVKELAENNHILERFGSLTMDGGLRNVDCL |  | binding [3]: no binding
